Laboratory results from PubChem BioAssay AID1347075 (National Center for Advancing Translational Sciences (NCATS), 2019).
In all, about 400,000 compounds went through this assay and about 5,500 (1.4%) were called active. This list was built around the results that the source calls inconclusive (neither active nor inactive); the mix of calls is not that of the screen. The call rests on the fitted dose curve; in most records, active means well fitted cell-killing curve with a large enough effect; inconclusive means small, poorly fitted or top-dose-only effect, or effect the other way; inactive means flat fitted curve, though single readings scatter. Where the call is inconclusive, the potency comes from a doubtful curve fit.

test: qHTS assay for MDR1-selective chemotherapeutics: Primary screen using the parental adenocarcinoma cell KB-3-1; conditions: KB-3-1 viability, CellTiter-Glo ATP luminescence, 72 h; activity change, negative = cytotoxic: at 46.1 µM (top of the series); further: nearly all actives have a fitted effect of over 60% in size
How it was run: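 Multi-concentration cytotoxicity screen in KB-3-1 cells grown in DMEM lacking phenol red with 10% FBS. After 72 h at 37 °C with compound, ATP-dependent luminescence was recorded.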
On the % scale 0 is the no-effect control and ±100 the full control effect; potency means the concentration at half of the fitted maximal effect.

Compound	Potency	activity change, negative = cytotoxic
CCN(CC)c1ccc(/C=C/c2c(C)cnc3ccc(C)cc23)cc1	inconclusive: 25.9 µM [cytotoxic, single point]	
CC1(C)OC2COC(c3[nH]nc4c(=O)[nH]c(=O)[nH]c34)C2O1 (configuration not stated)		inactive: 1.73%
N=c1ccn(Cc2ccc(Cl)c(Cl)c2)cc1	inconclusive: 8.2 µM [cytotoxic, partial curve, poor fit]	
OC(c1ccc(Cl)cc1)c1ncc(-c2cccc(C(F)(F)F)c2)[nH]1 (configuration not stated)	inconclusive: 23.1 µM [cytotoxic, single point]	
COc1cc(C(=O)OCCc2cc3ccccc3c(=O)o2)cc(OC)c1OC	active: 4.61 µM	
COc1ccc(N2CCN(S(=O)(=O)c3ccc4c(c3)OCCO4)CC2)cc1	inconclusive: 29.1 µM [rising, single point]	
COc1cccc(-c2c(C(=O)N/N=C/c3cccs3)nnn2-c2nonc2N)c1		inactive: 4.89%
COC(=O)CNC(=O)/C=C/c1cc(Br)ccc1OC		inactive: -5.18%
COc1cccc(NC(=O)N(Cc2cn(C)c3ccccc23)C2CCCCCC2)c1	inconclusive: 29.1 µM [cytotoxic, single point]	
N#CC1=C(SCC(=O)NC2CCCCC2)NC(=O)CC1c1ccco1 (configuration not stated)	active: 14.6 µM	
O=[N+]([O-])c1ccc(O)c(/C=N\N=C2c3ccccc3-c3ccccc32)c1	active: 8.2 µM	
Cn1c2ccccc2c2cc(C(=O)N3CCOCC3)sc21	inconclusive: 2.91 µM [rising, partial curve]	
CC(=O)Nc1ccc(C(=O)Nc2nc(-c3ccccn3)cs2)cc1		inactive: -2.96%
Cc1cc(NC(=O)CSc2nc3ccccc3c(=O)n2C(C)c2ccccc2)no1 (configuration not stated)	inconclusive: 16.4 µM [cytotoxic, single point]	
Cc1cccc(Nc2ccccc2C(=O)OCC(=O)NCc2ccco2)c1C	inconclusive: 29.1 µM [cytotoxic, single point]	
Cc1c(Br)c([N+](=O)[O-])nn1CC(=O)Nc1c(C)n(C)n(-c2ccccc2)c1=O		inactive: 0.0284%
C[C@@H]1CN([C@H](C)CO)S(=O)(=O)c2ccc(C#CC3CCCC3)cc2O[C@H]1CN(C)C(=O)Cc1ccccc1	inconclusive: 20.6 µM [cytotoxic, single point]	
Cc1ccc(Cl)cc1NC(=O)CC1Sc2ccccc2NC1=O (configuration not stated)		inactive: -4.56%
Cc1ccc(-c2csc3ncnc(-n4nnc5ccccc54)c23)cc1	inconclusive: 20.6 µM [cytotoxic, partial curve]	
Cc1ccc(CNC(=O)CCc2c(C)nc3c4c(C)cc(C)nc4nn3c2C)cc1		inactive: 0.218%
COc1ccc(OC)c(Nc2nc(-c3sc(C)nc3C)cs2)c1	inconclusive: 29.1 µM [cytotoxic, single point]	
COc1cccc([C@@H]2Oc3ccc(OC)cc3C(=O)[C@H]2O)c1	inconclusive: 16.4 µM [cytotoxic, partial curve]	
COc1cc(-c2nc3n(n2)C(c2cccc(OC)c2OC)C2=C(CCCC2=O)N3)cc(OC)c1OC (configuration not stated)	inconclusive: 4.61 µM [cytotoxic, full curve]	
O=C(OC(C(=O)NC1CCCCC1)c1ccccc1F)c1ccco1 (configuration not stated)		inactive: 4.62%

Compound	Potency	activity change, negative = cytotoxic
C[C@@H]1CN([C@H](C)CO)C(=O)c2cc(-c3ccccc3)cnc2O[C@@H]1CN(C)C(=O)C1CCOCC1	inconclusive: 0.291 µM [rising, partial curve, poor fit]	
O=C(NC1CCN(Cc2ccccc2)C1)c1cc(COc2ccc(F)cc2F)on1 (configuration not stated)	inconclusive: 29.1 µM [cytotoxic, single point]	
COc1cc(N=c2ssnc2Cl)cc(OC)c1		inactive: 7.88%
CCOC(=O)C1C(c2ccc(O)c(O)c2)NC(=S)NC1(O)C(F)(F)F (configuration not stated)		inactive: 2.06%
COc1ccc(NS(=O)(=O)c2cc(NS(=O)(=O)c3cccs3)ccc2C)cc1	inconclusive: 18.4 µM [cytotoxic, single point]	
CSc1n[nH]c(/N=C/c2oc(O)c3ccccc23)n1	inconclusive: 18.4 µM [rising, single point]	
O=C(N/N=C/c1ccc(Br)cc1)c1ccccc1-n1cccc1	inconclusive: 29.1 µM [cytotoxic, single point]	
CCc1ccc(Sc2cc(C(=O)NCCCN3CCC(C)CC3)c3ccccc3n2)cc1		inactive: -21.9%
Oc1ccc(C[C@H]2CNC(=S)N2CC2CCCN2C[C@H](Cc2ccc(O)cc2)N2C[C@H](Cc3ccccc3)N(CC3CCCCCC3)C2=S)cc1 (some centres not stated)	inconclusive: 23.1 µM [cytotoxic, single point]	
O=C1/C(=C/c2ccccc2Cl)SC(=S)N1CCCC(=O)N(CCO)c1ccccc1	inconclusive: 23.1 µM [cytotoxic, single point]	
Clc1ccccc1CNCC1CCCO1 (configuration not stated)		inactive: 1.96%
O=C(O)c1cc(=O)c2c3nc4ccccc4oc-3cc(=O)c2[nH]1		inactive: 0%
CSc1ccc(/C=C(\NC(=O)c2ccc(C)cc2)C(=O)NN)cc1		inactive: 1.94%
Cc1ccc(C(=O)N2CCN(c3ccc(NC(=S)NC(=O)Cc4ccccc4)cc3)CC2)cc1		inactive: 3.98%
Cc1ccc(Nc2nc(N3CCOCC3)nc(N3CCOCC3)n2)cc1Cl	inconclusive: 18.4 µM [cytotoxic, single point]	
COc1ccc(-c2csc(Nc3cc(C)ccn3)n2)cc1OC		inactive: -18.7%
Cc1cccn2c(=O)nc(SCC(=O)N3CCC(C)CC3)nc12		inactive: 21.9%
COc1ccc(-c2cc(NC=O)c3ncc(-c4ccc(C(C)=O)cc4)n3c2)cn1	inconclusive: 29.1 µM [cytotoxic, single point]	
COC(=O)c1ccc(NC(=O)CN(C2CCCCC2)S(C)(=O)=O)cc1	inconclusive: 32.6 µM [cytotoxic, single point]	
Cc1cc(Br)ccc1NC(=O)c1c(C)oc2ncnc(N3CCCCC3)c12		inactive: -0.293%
Cc1cccc(-c2nnc(SCc3ccc(C#N)cc3)n2Cc2ccco2)c1		inactive: -10.8%
Cc1ccccc1N1CC(c2nc3ccccc3n2Cc2ccc(Br)cc2)CC1=O (configuration not stated)	inconclusive: 23.1 µM [cytotoxic, single point]	
O=C(c1ccc(-c2ccc([N+](=O)[O-])cc2)o1)N1CCCCCCC1	inconclusive: 23.1 µM [cytotoxic, single point]	
O=C(NCc1ccccc1)C1=C[C@@H](c2csc3ccccc23)C[C@@H](OCc2ccc(CO)cc2)O1	active: 20.6 µM	

In a second layout: 7 of the compounds above
Compound,Potency,"activity change, negative = cytotoxic"
Cc1ccc(Cl)cc1NC(=O)CC1Sc2ccccc2NC1=O (configuration not stated),,inactive: -4.56%
Cc1ccc(-c2csc3ncnc(-n4nnc5ccccc54)c23)cc1,"inconclusive: 20.6 µM [cytotoxic, partial curve]",
Cc1ccc(CNC(=O)CCc2c(C)nc3c4c(C)cc(C)nc4nn3c2C)cc1,,inactive: 0.218%
COc1ccc(OC)c(Nc2nc(-c3sc(C)nc3C)cs2)c1,"inconclusive: 29.1 µM [cytotoxic, single point]",
COc1cccc([C@@H]2Oc3ccc(OC)cc3C(=O)[C@H]2O)c1,"inconclusive: 16.4 µM [cytotoxic, partial curve]",
COc1cc(-c2nc3n(n2)C(c2cccc(OC)c2OC)C2=C(CCCC2=O)N3)cc(OC)c1OC (configuration not stated),"inconclusive: 4.61 µM [cytotoxic, full curve]",
O=C(OC(C(=O)NC1CCCCC1)c1ccccc1F)c1ccco1 (configuration not stated),,inactive: 4.62%

(listing goes on)

Compound	Potency	activity change, negative = cytotoxic
Cc1cc(NC(=O)c2cc(-c3ccc(Cl)c(Cl)c3)on2)n(-c2ccccc2)n1		inactive: 9.29%
CCC(=O)N(C(=O)CC)N1CCN(c2ccncc2S(=O)(=O)N2CCCCC2)CC1	active: 0.0291 µM	
CC(=O)Nc1ccc(S(=O)(=O)N(C)c2ccccc2)cc1	inconclusive: 29.1 µM [rising, single point]	
CCNc1nc2c(c(=O)n(C)c(=O)n2C)n1CCCc1ccccc1	inconclusive: 5.8 µM [cytotoxic, partial curve]	
CCC(C)NC(=O)c1ccccc1NC(=O)COc1ccc(OC)cc1 (configuration not stated)	inconclusive: 18.4 µM [cytotoxic, partial curve, poor fit]	
C[C@@H]1CCCCO[C@H](CN(C)Cc2ccc(C(F)(F)F)cc2)[C@@H](C)CN([C@H](C)CO)C(=O)c2cc(NS(=O)(=O)c3cn(C)cn3)ccc2O1		inactive: 6.86%
Cc1[nH]nc2oc(=O)c(CCO)c(C)c12		inactive: 19.7%
CC(C)Oc1cccc(C(=O)C2CCCN(Cc3cccn3-c3ccccn3)C2)c1 (configuration not stated)	inconclusive: 20.6 µM [cytotoxic, single point]	
C=CCNc1nc(NCCOC)c2sc(-c3ccccc3)cc2n1		inactive: -0.0365%
O[C@@H]1CN(Cc2cccs2)[C@@H](c2ccc(Cl)cc2)C[C@H]1n1cc(C2CC2)nn1	inconclusive: 29.1 µM [cytotoxic, single point]	
COc1ccc(OC)c(N=c2oc3cc(O)ccc3cc2C(N)=O)c1	inconclusive: 16.4 µM [cytotoxic, partial curve, poor fit]	
Clc1ccc(C2=NCCn3nc4ccccc4c32)cc1	inconclusive: 14.6 µM [cytotoxic, single point]	
CCOc1ccc(S(=O)(=O)N2CCCCC2)cc1NC(=O)C1CCCC1		inactive: 10.9%
COc1cccc(/C=C/C(=O)c2ccc[nH]2)c1	inconclusive: 25.9 µM [cytotoxic, single point]	
CCCCNc1c(-c2ccc(OC)c(Sc3ccc(OC)cc3)c2)nc2ccccn12	inconclusive: 29.1 µM [cytotoxic, single point]	
CCC(Oc1ccccc1)C(=O)Nc1nnc(C)s1 (configuration not stated)		inactive: -4.68%
C[C@H](CO)N1C[C@H](C)[C@@H](CN(C)Cc2cccnc2)Oc2cc(-c3cccnc3)ccc2S1(=O)=O		inactive: -3.36%
CC1CCc2c(sc(NC(=O)c3cccs3)c2C(=O)O)C1 (configuration not stated)	active: 10.3 µM	
Cc1cc(=O)[nH]c2c(C)cc(S(=O)(=O)N3CCOCC3)cc12	inconclusive: 29.1 µM [cytotoxic, single point]	
CCOc1cc(/C=C2\SC(=S)N(N3CCOCC3)C2=O)ccc1O		inactive: -0.994%
O=C1CCN(Cc2ccc(Br)cc2)CCN1[C@H](CO)c1ccccc1	inconclusive: 20.6 µM [cytotoxic, single point]	
Cc1oc(-c2ccc(Cl)cc2)nc1CN1CCCC(C(=O)NCCc2ccccc2)C1 (configuration not stated)	inconclusive: 16.4 µM [cytotoxic, partial curve]	
CCc1cccc(C)c1NC(=O)c1cc(S(=O)(=O)N2CCC3(CC2)OCCO3)ccc1F	inconclusive: 32.6 µM [cytotoxic, single point]	
Cc1ccc(S(=O)(=O)N2CCCc3cc(NS(=O)(=O)c4ccc(C)c(C)c4)ccc32)cc1	inconclusive: 23.1 µM [cytotoxic, single point]	
